Data as given in PMC7999522.
Results are given in words; binding and its absence hold for the method and conditions named. Binding seen in cells or lysates may run through a third protein. Some results given as binding are weak or reduced against the parent protein; the word gives no strength.

By UniProt entry, the sequences of proteins in these tests, tags left out.
UniProt Q14152: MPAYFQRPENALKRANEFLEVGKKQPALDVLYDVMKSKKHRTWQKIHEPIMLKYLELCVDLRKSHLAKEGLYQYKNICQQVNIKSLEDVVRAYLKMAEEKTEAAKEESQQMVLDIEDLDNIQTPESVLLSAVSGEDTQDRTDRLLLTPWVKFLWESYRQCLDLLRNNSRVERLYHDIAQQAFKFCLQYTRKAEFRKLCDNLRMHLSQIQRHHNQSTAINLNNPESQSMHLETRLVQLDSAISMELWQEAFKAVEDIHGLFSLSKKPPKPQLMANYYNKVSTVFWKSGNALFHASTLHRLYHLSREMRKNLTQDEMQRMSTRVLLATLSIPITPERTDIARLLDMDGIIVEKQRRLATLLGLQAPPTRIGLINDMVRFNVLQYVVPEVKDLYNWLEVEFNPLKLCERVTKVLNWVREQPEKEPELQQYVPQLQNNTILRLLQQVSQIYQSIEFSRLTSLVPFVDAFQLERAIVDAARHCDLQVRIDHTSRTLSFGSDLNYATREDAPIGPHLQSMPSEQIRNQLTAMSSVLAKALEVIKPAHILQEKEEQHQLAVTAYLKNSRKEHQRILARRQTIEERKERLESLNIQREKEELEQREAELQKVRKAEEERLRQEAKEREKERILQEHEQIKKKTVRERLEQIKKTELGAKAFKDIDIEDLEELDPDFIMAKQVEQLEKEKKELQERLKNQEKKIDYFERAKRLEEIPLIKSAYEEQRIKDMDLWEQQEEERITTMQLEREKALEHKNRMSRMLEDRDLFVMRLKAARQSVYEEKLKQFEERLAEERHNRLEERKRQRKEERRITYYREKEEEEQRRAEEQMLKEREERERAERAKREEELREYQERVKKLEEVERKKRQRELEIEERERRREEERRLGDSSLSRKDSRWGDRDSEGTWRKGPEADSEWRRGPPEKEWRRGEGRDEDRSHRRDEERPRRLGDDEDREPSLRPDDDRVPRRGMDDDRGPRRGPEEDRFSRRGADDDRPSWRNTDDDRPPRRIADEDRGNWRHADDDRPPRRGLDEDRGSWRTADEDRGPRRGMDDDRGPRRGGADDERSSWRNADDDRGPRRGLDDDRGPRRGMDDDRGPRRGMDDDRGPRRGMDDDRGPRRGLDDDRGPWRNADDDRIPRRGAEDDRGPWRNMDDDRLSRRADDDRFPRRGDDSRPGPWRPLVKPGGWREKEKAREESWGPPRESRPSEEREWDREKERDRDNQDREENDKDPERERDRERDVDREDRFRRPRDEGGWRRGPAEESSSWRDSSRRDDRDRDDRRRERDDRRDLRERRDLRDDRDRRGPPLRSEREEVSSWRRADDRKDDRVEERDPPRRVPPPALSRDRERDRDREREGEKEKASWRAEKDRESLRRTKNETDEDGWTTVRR
UniProt P67809: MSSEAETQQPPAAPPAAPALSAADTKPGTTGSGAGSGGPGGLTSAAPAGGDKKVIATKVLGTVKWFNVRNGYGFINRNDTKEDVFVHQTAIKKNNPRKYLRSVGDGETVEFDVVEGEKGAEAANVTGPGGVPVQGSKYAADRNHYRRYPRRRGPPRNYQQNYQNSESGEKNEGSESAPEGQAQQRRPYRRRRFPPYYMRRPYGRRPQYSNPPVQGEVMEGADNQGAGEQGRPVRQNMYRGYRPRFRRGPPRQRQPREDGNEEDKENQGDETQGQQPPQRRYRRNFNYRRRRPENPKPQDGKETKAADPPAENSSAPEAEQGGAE

Target: myc-BirA*-eIF3A fusion protein (UniProt Q14152)
Assay: co-IP; cells transfected with the myc-BirA*-eIF3A plasmid as for BioID; RIPA lysate, anti-c-Myc magnetic beads overnight at 4 °C, three washes with RIPA buffer; Western blot for the endogenous partner

In the case of YB-1 (from UniProt P67809 1-324), the binding was “binds”.
